# Experimental data: the supplement of paper PMC3334620
# In all, about 33,000 sequences were measured (“E-score (-0.5 to 0.5)”: median about -0.016, highest 2% from about 0.3 on). The list shows a part of the results.
# Molecular target: T1, Yer184c (UniProt P39961)
# T1 sequence: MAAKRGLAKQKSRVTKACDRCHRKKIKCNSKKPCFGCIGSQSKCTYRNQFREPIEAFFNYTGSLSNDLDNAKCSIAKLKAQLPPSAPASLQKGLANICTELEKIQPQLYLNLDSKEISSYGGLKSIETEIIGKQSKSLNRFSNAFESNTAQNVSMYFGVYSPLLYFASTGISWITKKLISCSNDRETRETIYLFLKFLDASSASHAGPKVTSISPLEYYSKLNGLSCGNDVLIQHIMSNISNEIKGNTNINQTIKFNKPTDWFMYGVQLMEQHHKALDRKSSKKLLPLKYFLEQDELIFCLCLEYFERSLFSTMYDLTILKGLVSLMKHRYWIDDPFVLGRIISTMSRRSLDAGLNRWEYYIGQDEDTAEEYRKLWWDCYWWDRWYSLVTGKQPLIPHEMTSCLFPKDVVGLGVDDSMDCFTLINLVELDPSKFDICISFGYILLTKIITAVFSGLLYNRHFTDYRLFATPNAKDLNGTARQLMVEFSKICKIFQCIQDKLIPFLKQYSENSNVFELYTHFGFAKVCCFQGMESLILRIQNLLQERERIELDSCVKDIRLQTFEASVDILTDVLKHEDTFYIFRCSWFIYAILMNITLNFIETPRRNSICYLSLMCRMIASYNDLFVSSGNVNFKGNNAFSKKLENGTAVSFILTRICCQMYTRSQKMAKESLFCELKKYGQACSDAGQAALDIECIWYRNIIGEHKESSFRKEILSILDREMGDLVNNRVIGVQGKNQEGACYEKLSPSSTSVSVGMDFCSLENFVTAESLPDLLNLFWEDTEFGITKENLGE
# Experiment: PBM E-score (8-mer binding enrichment) (E-score (-0.5 to 0.5)); higher = stronger / more preferred TF binding
# Conditions: protein concentration: 100 nM; construct: GST-full length
# Outline: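 For each ungapped eight-base word taken together with its reverse complement, the Universal PBM Analysis Suite assigned an E-score. Binding data came from GST-tagged yeast transcription factors, applied at about 100-200 nM, on universal all-10-mer Agilent arrays made double-stranded by primer extension. Fluorescent anti-GST marked bound protein, and scans were normalised with masliner.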
row,Sequence,PBM E-score
1,CATCAGAG,-0.0413
2,CTCGGGAC,0.185
3,ACTGGGCG,-0.219
4,ACGGTGCA,-0.0594
5,TACTGTGA,-0.0361
6,ACGTTGTA,-0.0156
7,GGGACACC,-0.231
8,CAAGTGCC,-0.126
9,GGGCTGCA,-0.213
10,ATCGACCC,-0.0134
11,GGCTGTAC,-0.0996
12,AAGGATGG,-0.075
13,GGTAATGA,0.0832
14,CAAATTAG,0.12
15,AAATGTTA,0.0199
16,CGTCCGCC,0.0838
17,GATGCGGA,0.0925
18,CCTGGAAC,-0.105
19,CCAGATCA,0.135
20,GGGTGCAC,-0.14
21,GTCTCTCA,0.0704
22,ATAATACC,0.15
23,AGGTCAAC,-0.143
24,CCTGGCCA,-0.256
25,ATCGTCGA,-0.00197

# Laid out differently: entries from further up
row	Sequence	PBM E-score
7	GGGACACC	-0.231
8	CAAGTGCC	-0.126
9	GGGCTGCA	-0.213
10	ATCGACCC	-0.0134
11	GGCTGTAC	-0.0996

# Following part.

row,Sequence,PBM E-score
1,GCTAGAAC,0.0788
2,CTCAGCCA,-0.186
3,TAATAAAA,0.3
4,CACACCCG,0.0163
5,GCCAAAAC,-0.196
6,CTGATTTC,0.114
7,CAGGGCCA,-0.365
8,AACGCTAT,-0.159
9,ACGATCCT,-0.147
10,ACTGTCCC,-0.202
11,AAGAGGGC,-0.223
12,TAGTCGCA,-0.0672
13,CGAATGCG,0.147
14,CCTCCCGC,-0.12
15,ACAGGACC,-0.0506
16,AGCACGAG,0.1
17,GGTATCAA,-0.0802
18,CGAGAACG,0.179
19,AGGGATCC,-0.168
20,ATGTCGCG,-0.0449
21,GCGAGACC,0.00307
22,ACTTGTTC,0.218
23,GCTGACCA,-0.0597
24,GAAGAACC,-0.0402
25,AATGAATT,0.231

row,Sequence,PBM E-score
1,CAGGTACC,-0.0701
2,AGTCTGCG,-0.268
3,GAAGCGTC,-0.184
4,CCTCCTCG,-0.125
5,GAACGGGC,-0.166
6,CACATGGG,-0.251
7,AGCATCCC,-0.223
8,AGACCGAT,0.0681
9,GTTGGGGA,-0.207
10,AGTGGGTA,-0.117
11,CACGCAGA,-0.012
12,ACTACAAC,0.0197
13,TATGGGAA,-0.0118
14,AAAAACGA,0.132
15,TCTCCGCA,0.0183
16,ATAGCAAA,0.144
17,CATGCGGC,-0.101
18,GTATGAGA,0.0458
19,GCAAGCCC,-0.0906
20,AAGCGCGG,-0.116
21,ATGAGGAA,0.07
22,CCAAGCGA,-0.23
23,CCCGACAC,-0.218
24,CAAGTTGG,0.0116
25,ATCCCATA,-0.0853

row,Sequence,PBM E-score
1,ATACTGCG,-0.0752
2,AGTCACAA,-0.109
3,CATGGTCC,-0.103
4,ATTTTTGC,0.223
5,GCGTGAGA,-0.0167
6,AACCTTTC,0.0841
7,ATTGTCGG,0.186
8,CGGAAAAG,0.248
9,AACCAGCA,-0.0427
10,CCACAACC,0.189
11,CTAGAGCC,-0.0934
12,AAGAGAGT,-0.189
13,CCTTAATA,-0.065
14,ACTGGTGA,-0.286
15,CCCCCCCA,-0.391
16,GATGCATA,0.0447
17,CACTCTCC,0.105
18,CAAGATAG,-0.0569
19,GGTACAGA,0.0572
20,CATCCTGC,-0.211
21,GCGATTAC,-0.0336
22,CCACTCAC,-0.126
23,GACCGCGA,-0.0337
24,AGAATTAC,0.245
25,GCTAGAAA,0.166

row,Sequence,PBM E-score
1,CTCACACA,-0.0396
2,GAATGTCA,-0.0807
3,CCAGACCA,-0.0635
4,CAACTGGA,-0.174
5,GATGCGCC,-0.0605
6,AAGAATTG,0.0346
7,CTATGCAC,-0.206
8,GACACACC,-0.095
9,TGAGCCAA,-0.247
10,ATGGGAGC,-0.111
11,TAGCCATA,-0.109
12,ACGCTAGC,-0.137
13,AGTGCATA,-0.0583
14,ATCTCCCC,-0.294
15,ACAAATTA,0.205
16,ATGGGTCA,-0.192
17,TGACACAA,0.0374
18,CCATCCCA,0.00331
19,AATGTGTC,0.0951
20,CGTTCTCA,-0.123
21,CCCTTAGA,-0.25
22,CAACCATC,-0.149
23,GGTTCGAC,-0.153
24,ACTACGCA,-0.102
25,AACGGGCC,-0.0595

row,Sequence,PBM E-score
1,CAGAGAGC,-0.088
2,AAAGAGTC,-0.129
3,ATTTACAG,0.146
4,AAGTGTCT,-0.0612
5,ACAGATTC,0.163
6,GCACCGCA,-0.254
7,AGGTGAAG,-0.032
8,TGTCGACA,-0.0666
9,GTACATAA,0.134
10,GCCGCCCC,-0.0231
11,ATCGGCAA,0.246
12,ACTGCAGC,-0.196
13,ACCGCCAC,-0.128
14,AAGGAATT,0.0261
15,CATCAGCC,0.00044
16,GATCAAGA,0.17
17,AATGAAAC,0.141
18,AACGCGGG,0.197
19,CACCGAGG,0.089
20,ACCTCCTG,-0.292
21,AAACTCGG,0.255
22,ACCCTGGG,-0.106
23,TACCTTCA,0.0985
24,AGACGCCA,-0.068
25,GCGATCCA,-0.139

row,Sequence,PBM E-score
1,CCAGCCAG,-0.244
2,AGATATTA,0.0953
3,TAAGAGTA,0.0956
4,CTGCATTA,-0.0183
5,CCAGAGGC,-0.254
6,CATGATCA,0.0702
7,AGGCTATA,0.00385
8,GGACTGGA,-0.0699
9,ACCTGGGG,-0.436
10,CCGCTTAA,0.122
11,CGACGCCC,0.00224
12,AATAGAGA,-0.117
13,CAAGCGAG,0.0234
14,CATCCCCA,-0.335
15,GCATAGAA,0.218
16,ACGAACGG,0.169
17,ACGTCTCG,0.0499
18,GTGGAGTA,-0.0641
19,CATTAATA,0.263
20,AACCGTGG,-0.0525
21,ACCCAGTA,-0.186
22,CCGCGCGC,0.154

# Some of the entries above in a different format.
row | Sequence | PBM E-score
13 | GGTAATGA | 0.0832
14 | CAAATTAG | 0.12
